Measurements: the supplement of paper PMC4256282, “Profound Activity of the Anti-cancer Drug Bortezomib against Echinococcus multilocularis Metacestodes Identifies the Proteasome as a Novel Drug Target for Cestodes” (PLoS Neglected Tropical Diseases, 2014)
Where a name gives a salt, the structure may show the parent alone. The list shows a part of the results. Most values come without repeats; read them as rough.

What follows are compounds tested on Echinococcus multilocularis metacestodes (assay: vesicle damage (PGI release) relative to positive control DB1127 at 20 µM, DMSO subtracted; higher = more parasite damage). Settings: treatment time 5 days.

Row | SMILES | vesicle damage [%]
1 | N=C(N)NC(=O)c1nc(Cl)c(N)nc1N [Amiloride hydrochloride] | -13.7
2 | CC=CC1=C(C(=O)O)N2C(=O)[C@@H](NC(=O)[C@H](N)c3ccc(O)cc3)[C@H]2SC1 [Cefprozil hydrate] | -0.347
3 | NC(=O)NO [Hydroxyurea] | -11.3
4 | COc1ccc2[nH]c([S+]([O-])Cc3ncc(C)c(OC)c3C)nc2c1 (centres undefined) [Omeprazole] | -0.281
5 | NS(=O)(=O)c1cc2c(cc1Cl)NCNS2(=O)=O [Hydrochlorothiazide] | -10.7
6 | CC(C)Cn1cnc2c(N)nc3ccccc3c21 [Imiquimod] | 1.82
7 | O=C(O)COCCN1CCN(C(c2ccccc2)c2ccc(Cl)cc2)CC1 (centres undefined) [Cetirizine di hcl] | -0.893
8 | CN/C(=N\CCSCc1nc[nH]c1C)NC#N [Cimetidine] | -12.8
9 | CC(C)[N+]1(C)[C@@H]2CC[C@H]1C[C@@H](OC(=O)C(CO)c1ccccc1)C2 (some centres undefined) [Ipratropium bromide] | -3.74
10 | C=C1[C@H](CO)[C@@H](O)C[C@@H]1n1cnc2c(=O)[nH]c(N)nc21 [Entecavir hydrate] | -0.988
11 | CN(C/C=C/C#CC(C)(C)C)Cc1cccc2ccccc12 [Terbinafine] | 3.18
12 | Nc1ccc(S(=O)(=O)Nc2ncccn2)cc1 [Sulfadiazine] | -12.2
13 | Cc1nnc(C(C)C)n1C1C[C@H]2CC[C@@H](C1)N2CC[C@H](NC(=O)C1CCC(F)(F)CC1)c1ccccc1 (stereo in doubt) [Maraviroc] | -8.48
14 | C[C@@H]1C/C=C/C=C/C=C/C=C/[C@H](O[C@@H]2O[C@H](C)[C@@H](O)[C@H](N)[C@@H]2O)C[C@@H]2O[C@](O)(C[C@@H](O)C[C@H]3O[C@@H]3/C=C/C(=O)O1)C[C@H](O)[C@H]2C(=O)O [Natamycin] | 1.87
15 | NC(=O)N1c2ccccc2C=Cc2ccccc21 [Carbamazepine] | -3.05
16 | Cc1cccc(C)c1OCC(=O)N[C@@H](Cc1ccccc1)[C@@H](O)C[C@H](Cc1ccccc1)NC(=O)[C@H](C(C)C)N1CCCNC1=O [Lopinavir] | 16.6
17 | CCOC(=O)c1ccc(C#Cc2ccc3c(c2)C(C)(C)CCS3)nc1 [Tazarotene] | -1.13
18 | CCCC1O[C@@H]2C[C@H]3[C@@H]4CCC5=CC(=O)C=C[C@]5(C)[C@H]4[C@@H](O)C[C@]3(C)[C@]2(C(=O)CO)O1 (some centres undefined) [Budesonide] | 2.83
19 | COc1c2occc2cc2ccc(=O)oc12 [Methoxsalen] | -7.39
20 | CCn1cc(C(=O)O)c(=O)c2cc(F)c(N3CCNCC3)cc21 [Norfloxacin] | 0.615

Look-ups from the list:
In vesicle damage [%], `CC(C)Cn1cnc2c(N)nc3ccccc3c21` [Imiquimod] is entered as 1.82
In vesicle damage [%], `C=C1[C@H](CO)[C@@H](O)C[C@@H]1n1cnc2c(=O)[nH]c(N)nc21` [Entecavir hydrate] is entered as -0.988

Further compounds.

Row | SMILES | vesicle damage [%]
21 | Cc1nnc(C(=O)NC(C)(C)c2nc(C(=O)NCc3ccc(F)cc3)c(O)c(=O)n2C)o1 [Raltegravir] | 0.0693
22 | NC(=O)N/N=C/c1ccc([N+](=O)[O-])o1 [Nitrofurazone] | -0.799
23 | C[C@H]1[C@H](NC(=O)/C(=N\OC(C)(C)C(=O)O)c2csc(N)n2)C(=O)N1S(=O)(=O)O [Aztreonam] | -4.08
24 | Nc1ccn([C@@H]2O[C@H](CO)[C@@H](O)[C@@H]2O)c(=O)n1 [Cytarabine] | -0.316
25 | C#Cc1cccc(Nc2ncnc3cc(OCCOC)c(OCCO)cc23)c1 | 2.69
26 | C[C@H](Cn1cnc2c(N)ncnc21)OCP(=O)(O)O [Tenofovir] | -3.82
27 | Cc1onc(-c2ccccc2Cl)c1C(=O)N[C@@H]1C(=O)N2[C@@H]1SC(C)(C)[C@@H]2C(=O)O [Cloxacillin sodium] | 2.6
28 | CC(=O)Oc1cc2c(s1)CCN(C(C(=O)C1CC1)c1ccccc1F)C2 (centres undefined) [Prasugrel] | 0.513
29 | CC(C)(C)NC(=O)[C@H]1CC[C@H]2[C@@H]3CC[C@H]4NC(=O)C=C[C@]4(C)[C@H]3CC[C@]12C [Finasteride] | 0.276
30 | CCN(CC)CC#CCOC(=O)C(O)(c1ccccc1)C1CCCCC1 (centres undefined) [Oxybutynin] | -12.9
31 | C[C@@H](O)[C@H]1C(=O)N2C(C(=O)O)=C(S[C@@H]3CN[C@H](CNS(N)(=O)=O)C3)[C@H](C)[C@H]12 [Doripenem Hydrate] | -2.49
32 | Nc1nc(Cl)nc2c1ncn2[C@@H]1O[C@H](CO)[C@@H](O)[C@@H]1F [Clofarabine] | -0.038
33 | COc1cc2c(cc1Cc1cccc(Cl)c1F)c(=O)c(C(=O)O)cn2[C@H](CO)C(C)C [Elvitegravir] | 5.66
34 | C[C@@H](O[C@H]1OCCN(Cc2n[nH]c(=O)[nH]2)[C@H]1c1ccc(F)cc1)c1cc(C(F)(F)F)cc(C(F)(F)F)c1 [Aprepitant] | 31.4
35 | NCCS(=O)(=O)O [Taurine] | 3.35
36 | Oc1ccc(/C=C/c2cc(O)cc(O)c2)cc1 [Resveratrol] | -3.14
37 | COc1cc2nc(N3CCN(C(=O)C4COc5ccccc5O4)CC3)nc(N)c2cc1OC (centres undefined) [Doxazosin mesylate] | 7.9
38 | CC(C)(C)C(=O)OCOP(=O)(COCCn1cnc2c(N)ncnc21)OCOC(=O)C(C)(C)C [Adefovir dipivoxil] | 3.35
39 | CC1=C(/C=C/C(C)=C/C=C/C(C)=C\C(=O)O)C(C)(C)CCC1 [Isotretinoin] | -3.63
